Here are results for 40 compounds from the supplement of paper PMC7024190.

Structures can show the parent of a compound that is named as a salt. The list shows a part of the results. Single values are uncertain here, since repeats match poorly.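 Human embryonic kidney cells were transiently transfected with a plasmid bearing a Renilla luciferase gene under the HSV-TK promoter. This first-round screen tests roughly ten thousand compounds for ones that increase reporter output.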

This assay concerns HEK 293FT. Briefly: log relative Renilla luciferase luminescence (reporter expression vs reference, reference not stated) (log (base not stated)); higher = higher recombinant reporter expression. The settings on record: 10 µM; time after transfection 48 h.
Take `C[N+]1(C)CCC(OC(=O)C(c2ccccc2)c2ccccc2)CC1`: the log was 0.164. The figure for `CC[C@H](C)C(=O)O[C@H]1CCC=C2C=C[C@H](C)[C@H](CC[C@@H]3C[C@@H](O)CC(=O)O3)[C@H]21` [Mevastatin] is 0.156; for `Cc1nc2c(OCc3ccccc3)cccn2c1CC#N` it is 0.0458. The figure for `O=C(O)Cc1cccc(OCCCN(Cc2cccc(C(F)(F)F)c2Cl)CC(c2ccccc2)c2ccccc2)c1` [GW 3965 hydrochloride] is 0.00137; for `CN1CCC(=C2c3ccccc3CC(=O)c3sccc32)CC1` [Ketotifen fumarate] it is 0.0701. Consider `Cc1cc(C(=O)O)sc1C(N)C(=O)O` (stereo not given), for which the log was determined as 0.028.

As for `CC(=O)OCCNC(=O)c1cccnc1` [N-[2-(Acetoxy)ethyl]-3-pyridinecarboxamide], the log was found to be 0.0158. With `O=C(O)C1CCCN(CCC=C(c2ccccc2)c2ccccc2)C1` (stereo not given), the log was determined as 0.028.

Consider `CCCCCCCC/C=C\CCCCCCCC(=O)N[C@@H](CO)Cc1ccc(O)cc1`, for which the log is -0.0664. The figure for `CCCCC/N=c1\ccn(Cc2ccccc2)c2ccccc12` is -0.224; for `CCCCCCCCc1ccc(-c2ccc(C(=O)O)cc2)cc1` it is -0.0154; for `COc1ccccc1N1CCN(CCCCNC(=O)c2ccc(-c3ccc(C(C)=O)cc3)cc2)CC1` it is 0.031.

For the compound `O=C(Nc1ccc([N+](=O)[O-])cc1O)Nc1ccccc1Br`, the log was -0.0307. The figure for `CC(C)n1nnc2cc(C(=O)O)ccc21` is 0.0331; for `CC(C)NCC(O)COc1ccc(COCCOC(C)C)cc1` (racemic) [(±)-Bisoprolol hemifumarate] it is 0.0747. `N[C@H](C(=O)O)c1ccc(C(=O)O)c(O)c1` [(S)-4-Carboxy-3-hydroxyphenylglycine]: the log is -0.00108.

Turning to `CN(Cc1ccccc1)C(=O)[C@H](Cc1ccc2ccccc2c1)NC(=O)[C@@H]1CCCN1C(=O)Nc1ccccc1[N+](=O)[O-]`, the log stood at 0.0863. The figure for `OC(CN1CCC(Cc2ccc(F)cc2)CC1)c1ccc(Cl)cc1` (stereo not given) [Eliprodil] is 0.0783; for `CNc1cc2c(Nc3cccc(Br)c3)ncnc2cn1` it is -0.713; for `CCc1c2c(nc3ccc(OC(=O)N4CCC(N5CCCCC5)CC4)cc13)-c1cc3c(c(=O)n1C2)COC(=O)[C@]3(O)CC` it is -0.361. `CC1(C)C(=O)NC2=C1C(=O)C(=O)c1ccccc12`: the log is -0.837.

On to `O=C(O)CCC/C=C\C[C@@H]1CO[C@H](C(F)(F)F)O[C@@H]1c1ccccc1O`, for which the log is 0.137. Regarding `CC(C)NCC(O)COc1ccc(CCOCC2CC2)cc1` (stereo not given) [Betaxolol hydrochloride], the log is -0.0536. As to `NC(C(=O)O)c1ccc(C(=O)O)c(C(=O)O)c1` (racemic), the log was determined as 0.00954.

Turning to `COc1ccc(Nc2nccc(NCCO)n2)cc1` [Cardiogenol C hydrochloride], the log is -0.0475.

On to `CCCC1O[C@@H]2C[C@H]3[C@@H]4CCC5=CC(=O)C=C[C@]5(C)[C@H]4[C@@H](O)C[C@]3(C)[C@]2(C(=O)CO)O1` (stereo not given in full) [Budesonide], for which the log is -0.0275. To `Cc1c(C(=O)N(C)C2CCCCC2)sc2nc3ccc(N)cc3n12` belongs 0.0175; to `CCC1(c2ccccc2)C(=O)NCNC1=O` [Primidone], 0.0467; to `Oc1ccc(-c2nc(-c3ccc(F)cc3)c(-c3ccncc3)[nH]2)cc1`, -0.428. As to `Cc1ccc(C(=O)Cn2c3c(sc2=N)CCCC3)cc1` [Pifithrin- α hydrobromide], the log is -0.0416. Take `CCN1CCC[C@H]1CNC(=O)c1cc(S(N)(=O)=O)ccc1OC` [(S)-(-)-Sulpiride]: the log was found to be 0.0692.

On to `S=C(S)N1CCCC1` [Pyrrolidinedithiocarbamate ammonium], for which the log was -0.165. To `CCCCCCCCCCCCCCCCn1cc[n+](Cc2ccccc2)c1C` belongs -0.963; to `CCN(c1ccccc1)c1cc(=NC)n(C)c(C)n1`, -0.085. For the compound `Nc1nc(Nc2ccccc2)nc2c1ncn2[C@@H]1O[C@H](CO)[C@@H](O)[C@H]1O`, the log was -0.0515. The figure for `CCN(CC)c1ccc(/C=N/NC(=O)c2ccc(O)cc2)cc1` is 0.0346. To `COC(=O)C1=C(C)NC(C)=C(C(=O)NCCCN2CCC(c3ccccc3)(c3ccccc3)CC2)C1c1ccc([N+](=O)[O-])cc1` (stereo not given) belongs 0.0159; to `NC[C@@H]1O[C@H](C23CC4CC(CC(C4)C2)C3)Cc2c1ccc(O)c2O`, 0.0427. The figure for `COc1ccc(-c2oc3cc(OC)ccc3c2C(=O)c2ccc(C#N)cc2)cc1` is 0.128; for `OC[C@H]1O[C@@H](n2cnc3c(N[C@H]4CCC[C@@H]4O)ncnc32)[C@H](O)[C@@H]1O` it is 0.0778.
